Data reported in paper PMC10199339.
Results are given in words; binding and its absence hold for the method and conditions named. Binding seen in cells or lysates may run through a third protein. Here binding means that the protein was enriched with, or labelled near, the bait; the list need not be complete.

Protein sequences, listed by entry. Tags and fused reporters are not part of them.
UniProt P46940: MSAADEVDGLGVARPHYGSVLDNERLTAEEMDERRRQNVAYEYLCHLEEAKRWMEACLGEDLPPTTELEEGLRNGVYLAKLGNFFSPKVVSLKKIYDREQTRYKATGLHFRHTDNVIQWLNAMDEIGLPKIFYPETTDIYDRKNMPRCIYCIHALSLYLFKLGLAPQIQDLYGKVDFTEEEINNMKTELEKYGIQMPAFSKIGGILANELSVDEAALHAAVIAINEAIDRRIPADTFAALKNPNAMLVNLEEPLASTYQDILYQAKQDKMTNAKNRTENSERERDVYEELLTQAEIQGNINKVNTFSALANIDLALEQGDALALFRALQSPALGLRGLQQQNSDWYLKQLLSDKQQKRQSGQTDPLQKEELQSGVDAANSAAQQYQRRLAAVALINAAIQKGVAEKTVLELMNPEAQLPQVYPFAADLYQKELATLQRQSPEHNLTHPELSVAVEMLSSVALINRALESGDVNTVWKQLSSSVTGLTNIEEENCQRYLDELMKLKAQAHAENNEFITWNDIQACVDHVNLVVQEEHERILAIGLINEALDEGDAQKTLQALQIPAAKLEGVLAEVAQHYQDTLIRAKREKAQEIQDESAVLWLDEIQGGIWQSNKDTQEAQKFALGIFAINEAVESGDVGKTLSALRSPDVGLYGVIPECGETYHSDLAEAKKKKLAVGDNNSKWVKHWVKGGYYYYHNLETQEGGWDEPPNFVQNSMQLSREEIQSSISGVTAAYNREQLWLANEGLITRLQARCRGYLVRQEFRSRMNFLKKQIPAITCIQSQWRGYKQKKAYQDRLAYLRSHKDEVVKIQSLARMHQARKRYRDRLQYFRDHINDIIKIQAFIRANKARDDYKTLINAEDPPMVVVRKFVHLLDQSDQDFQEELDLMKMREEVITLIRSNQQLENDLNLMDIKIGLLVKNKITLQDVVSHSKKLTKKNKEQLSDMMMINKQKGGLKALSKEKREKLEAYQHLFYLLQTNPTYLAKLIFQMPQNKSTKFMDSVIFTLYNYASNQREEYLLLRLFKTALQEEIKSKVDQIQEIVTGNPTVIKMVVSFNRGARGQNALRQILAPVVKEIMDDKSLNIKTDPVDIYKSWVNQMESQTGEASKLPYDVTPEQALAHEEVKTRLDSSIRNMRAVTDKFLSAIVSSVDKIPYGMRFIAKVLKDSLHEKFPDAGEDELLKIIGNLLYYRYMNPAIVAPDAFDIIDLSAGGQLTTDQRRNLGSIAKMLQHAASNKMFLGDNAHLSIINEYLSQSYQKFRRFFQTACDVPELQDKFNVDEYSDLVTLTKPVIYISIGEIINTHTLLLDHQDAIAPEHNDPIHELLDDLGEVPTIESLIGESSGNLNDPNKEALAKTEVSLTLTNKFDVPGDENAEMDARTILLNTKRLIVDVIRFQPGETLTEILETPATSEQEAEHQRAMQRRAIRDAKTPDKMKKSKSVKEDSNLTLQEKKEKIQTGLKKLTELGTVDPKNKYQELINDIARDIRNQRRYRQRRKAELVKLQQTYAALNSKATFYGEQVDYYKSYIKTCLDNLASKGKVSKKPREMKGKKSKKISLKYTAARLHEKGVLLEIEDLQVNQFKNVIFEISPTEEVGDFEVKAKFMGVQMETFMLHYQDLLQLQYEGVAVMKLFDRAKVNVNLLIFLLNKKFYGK

Target: IQ-containing Ras GTPase like Protein 1 (IQGAP1) (human (endogenous in MDA-MB-231 and MDA-MB-468)) (UniProt P46940)
Test: affinity purification with mass spectrometry; IP with IQGAP1-specific monoclonal antibody (IgG as control) and protein A agarose beads from NP40 lysates of MDA-MB-231 or MDA-MB-468 cells treated with DMSO or 20 μM Haldol for 48 hrs; 4 °C; SDS-PAGE, in-gel trypsin digest, MALDI-TOF, Mascot search

Binder | binding
Zinc Finger DNA-binding protein (ZN835) (protein, UniProt Q9Y2P0 1-537) MEGLLSVALQGAELEGNWKHEGQVEDLQENQESCPEPEAVACKGDPAGDSMQERDEFSRIPRTISSPAATQASVPDDSSSRRCSAPGESPKERHPDSRQRERGGGPKKPWKCGDCGKAFSYCSAFILHQRIHTGEKPFACPECGKAFSQSVHLTLHQRTHTGEKPYACHECGKAFSQGSYLASHWRTHTGEKPHRCADCGKAFTRVTHLTQHRRVHTGERPYACAQCAKAFRNRSSLIEHQRIHTGEKPYECSACAKAFRFSSALIRHQRIHTEEKPYRCGQCAKAFAQIAHLTQHRRVHTGEKPYTCQDCGALFSQSASLAEHRRIHTGEKPYACGQCAKAFTQVSHLTQHQRTHTGERPYPCHDCGKRFSNRSHLLQHRLVHTGERPYRCLQCGAAFSHVSSLIEHQKIHTGERPYKCGECGKAFSQGSSLALHQRTHTGERPYTCPECGKAFSNRSYLIQHHIVHTGEKPYECSGCGKAFSFSSALIRHQRTHADSSGRLCPAPTPDSTPGLSQGGETCQQGCPGRNPRGPAED | binds
TGF-β1-induced antiapoptotic factor (TIAF1) (protein, UniProt O95411 1-115) MSSPSSPFREQSFLCAAGDAGEESRVQVLKNEVRRGSPVLLGWVEQAYADKCVCGPSAPPAPTPPSLSQRVMCNDLFKVNPFQLQQFRADPSTASLLLCPGGLDHKLNLRGKAWG | binds
Coordinated expression to IRXA2 (CEI) (protein, UniProt Q86SI9 36-138) LASGRLPLAVHSAQHGPGSGAPWLRIARRALRFVLSKHWGDDCYLTNRLWQDLKPPSHVENGQELRLAPPVQWALQVQGNQLQTAVLCLRMAPPEPAGSRQRI | binds
